According to patent publication US20240150465A1:
Results are given in words; binding and its absence hold for the method and conditions named. Some entries that bind do so weakly or less than the wild type.

By UniProt entry, the sequences of proteins in these tests, tags left out. Where a name states a change or a piece, a line headed by the entry shows the natural chain unless it says otherwise.
UniProt Q9NYJ7: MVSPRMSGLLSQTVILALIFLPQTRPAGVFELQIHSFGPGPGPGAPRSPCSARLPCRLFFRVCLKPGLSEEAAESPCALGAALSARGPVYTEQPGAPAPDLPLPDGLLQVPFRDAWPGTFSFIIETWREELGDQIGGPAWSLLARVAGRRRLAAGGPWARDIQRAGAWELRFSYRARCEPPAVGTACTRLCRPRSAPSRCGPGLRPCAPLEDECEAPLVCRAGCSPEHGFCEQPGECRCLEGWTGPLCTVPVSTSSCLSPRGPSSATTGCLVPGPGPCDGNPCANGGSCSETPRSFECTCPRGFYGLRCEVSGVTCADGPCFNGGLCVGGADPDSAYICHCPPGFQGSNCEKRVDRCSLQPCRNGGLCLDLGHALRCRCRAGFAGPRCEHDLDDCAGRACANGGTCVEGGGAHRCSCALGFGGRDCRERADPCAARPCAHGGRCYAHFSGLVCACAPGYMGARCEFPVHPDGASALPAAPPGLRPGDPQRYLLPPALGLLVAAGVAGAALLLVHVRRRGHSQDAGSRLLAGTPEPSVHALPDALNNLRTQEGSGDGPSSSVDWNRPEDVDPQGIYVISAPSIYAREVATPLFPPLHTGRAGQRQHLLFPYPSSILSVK

Target: recombinant human DLL3 (human) (UniProt Q9NYJ7)
Assay: Octet RED384 epitope binning, competitor DL306-SG1

B1: D30841AE05-SG1 (antibody, human IgG1, kappa, V domains shown)
VH: QVQLKESGPALVKPTQTLTLTCTFSGFSLSSSYDMGWVRQAPGQGLEWMGTIYTGDYSTDYASWAKGRVTITADESTSTAYMELSSLRSEDTAVYYCARNTGYGYFGLWGQGTLVTVSS
VL: DIQLTQSPSFLSASVGDRVTITCQSTESVYGSDWLSWYQQKPGQPPKLLIYQASNLEIGVPSRFSGSGSGTDFTLTINSLEAEDAATYYCQGYYSGYIYAFGGGTKVEIKR
- binding: binds
